Measured data: PubChem BioAssay AID652272 (Drosophila RNAi Screening Center, 2013)
Test: 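Genes whose knock-down decreases or increases Hedgehog reporter output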 (primary screen). System: Drosophila clone 8 (Cl8) cells. Reagent: long dsRNA against Drosophila genes. Measurement: 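Plate reader light from a firefly reporter under a ptc promoter fragment that responds to Hedgehog, with Renilla light as transfection reference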. Direction: firefly Hh reporter signal: higher = more ptc reporter light; Renilla reference signal: higher = more Renilla control light. Call rule: 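Called a hit if the two-replicate mean z-score lies below -2 or above +3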. Calls: active = hit: reporter lowered or raised; inactive = not a hit.
In all, the deposit lists about 21,000 reagents; shown is a random part of those with a known target gene and a result. In the full data, 503 (2.4%) are marked active. 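Raw plate light values, not normalised; calls rest on replicate z-scores that were not deposited; hits include reporter decreases as well as increases.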 A number with no mark means an inactive call. Reagents against one gene are numbered here. Names joined by + are all predicted targets of the reagent. Not stated in the record: the amount of reagent, the time to read-out.

no.	Gene	reagent	firefly Hh reporter signal, replicate 1	firefly Hh reporter signal, replicate 2	firefly Hh reporter signal, replicate 3	Renilla reference signal, replicate 1	Renilla reference signal, replicate 2
1	Tsp42Ek	1	96948	50300		2296	4016
2	Sxl	1	1.06e5	74668		1865	1708
3	Sxl	2	1.32e5	3.74e5		4307	14375
4	CG14072	1	95925	89814		2808	6541
5	Bap170	1	1.70e5	1.23e5		7157	5350
6	CG4598	1	79996	44891		1945	4042
7	Nprl2	1	81579	67338		1683	1590
8	Ptpa	1	1.21e5	53088		4980	2567
9	Clic	1	1.29e5	1.15e5		2704	2672
10	Frq2	1	1.02e5	3.74e5		3168	13372
11	bard	1	4.69e5	63589		21233	1841
12	uno	1	74907	68026		1824	7421
13	CG13461	1	71912			4161	2134
14	CG4497	1	81943	67461		4018	3660
15	Mulk	1	38614	51794		1850	2091
16	Glo1	1	81714	54016		1840	4602
17	REPTOR-BP	1	1.41e5	80056		3633	6554
18	CG15547	1	1.21e5	1.34e5		4272	3658
19	Kebab	1	1.48e5	1.22e5		6756	4967
20	Sirup	1	1.38e5	88167		3569	6864
21	mst	1	60038	4.00e5		1237	14973
22	ATbp	1	49989	1.15e5		1018	5923
23	CG33792	1	1.72e5	1.97e5		5168	11116
24	Pp1-13C	1	80994	2.29e5		2741	9369
25	GABA-B-R2	1	1.85e5	1.03e5		7088	3980
26	spn-A	1	88010	67940		3393	1962
27	mRpL52	1	1.14e5	67254		2183	5085
28	Jhbp15	1	7.01e5	93449		34768	2697
29	sba	1	47328	93776		11627	2387
30	sba	2	4.05e5	5.59e5	79107	20806	3140
31	CG18814	1	98365			2106	2971
32	CG32374	1	76611	58528		6422	4306
33	Alp13	1	94308	1.34e5		3269	3808
34	mRRF2	1	5.46e5	1.23e5		29801	3147
35	DIP-beta	1	3.84e5	1.65e5		26130	3812
36	DIP-beta	2	53291	2.21e5		1530	10397
37	DIP-beta	3	1.13e5	2.89e5		2301	13121
38	DIP-beta	4	1.18e5	3.25e5		2213	14848

7 neighbouring entries already listed:
no.	Gene	reagent	firefly Hh reporter signal, replicate 1	firefly Hh reporter signal, replicate 2	firefly Hh reporter signal, replicate 3	Renilla reference signal, replicate 1	Renilla reference signal, replicate 2
5	Bap170	1	1.70e5	1.23e5		7157	5350
6	CG4598	1	79996	44891		1945	4042
7	Nprl2	1	81579	67338		1683	1590
8	Ptpa	1	1.21e5	53088		4980	2567
9	Clic	1	1.29e5	1.15e5		2704	2672
10	Frq2	1	1.02e5	3.74e5		3168	13372
11	bard	1	4.69e5	63589		21233	1841

Next entries follow.
no.	Gene	reagent	firefly Hh reporter signal, replicate 1	firefly Hh reporter signal, replicate 2	firefly Hh reporter signal, replicate 3	Renilla reference signal, replicate 1	Renilla reference signal, replicate 2
39	CG9588	1	68049	82646		1532	1926
40	Tsp47F	1	50368	38123		1478	3721
41	CG30047	1	87218	1.78e5		2544	8141
42	htk	1	55259	1.62e5		1018	6826
43	htk	2	1.50e5	1.23e5		3213	3296
44	CG10053	1	1.44e5	1.09e5		4845	3514
45	CG13724	1	1.31e5			378	2088
46	CanA-14F	1	49850	1.08e5		1538	3104
47	CG34324	1	86376	3.19e5		2530	13184
48	CG3713	1	81469	1.60e5		2145	5976
49	VAChT	1	55952	1.74e5		11335	2677
50	VAChT	2	1.04e5	60452		3456	2155
51	CG13108	1	75984	36149		2256	3704
52	ENGase	1	5.85e5	1.24e5		4185	4185
53	ENGase	2	61206	1.87e5		1760	9494
54	CG6961 + CG18259	1	59193	1.86e5		986	8675
55	CG6961 + CG18259	2	94423	91779		2261	2357
56	CG5070	1	59385	1.58e5		2112	7718
57	CG17404	1	1.05e5	2.02e5		2262	5702
58	Targ	1	79090	27163		2387	2586
59	CG34205	1	1.30e5	84549		3174	7612
60	eyg	1	83481	13936	7458	2887	233
61	CG12310	1	1.06e5			4354	2804
62	arg	1	1.86e5	1.16e5		3621	4182
63	CG3323	1	65158	1.75e5		2082	5952
64	Gpdh2	1	1.30e5	82736		3338	6976
65	Sf3a1	1	51527 (active)	41638		3409	3254
66	nab	1	76695	64678		3184	4177
67	nab	2	1.02e5	63680		2436	3664
68	Mst57Da	1	5.99e5	1.22e5		33177	4125
69	zpg	1	68776	84572		8368	5915
70	janB	1	1.04e5	1.23e5		3689	3958
71	CG13857	1	9.49e5	2.04e5		46969	4835
72	mRpS29	1	48837	43232		2071	1728
73	CG13877 + pyx	1	1.00e5	51762		2916	3655
